These results are taken from PMC9395636.

By UniProt entry, the sequences of proteins in these tests, tags left out. Residues count along the entry.
UniProt Q8BWG9: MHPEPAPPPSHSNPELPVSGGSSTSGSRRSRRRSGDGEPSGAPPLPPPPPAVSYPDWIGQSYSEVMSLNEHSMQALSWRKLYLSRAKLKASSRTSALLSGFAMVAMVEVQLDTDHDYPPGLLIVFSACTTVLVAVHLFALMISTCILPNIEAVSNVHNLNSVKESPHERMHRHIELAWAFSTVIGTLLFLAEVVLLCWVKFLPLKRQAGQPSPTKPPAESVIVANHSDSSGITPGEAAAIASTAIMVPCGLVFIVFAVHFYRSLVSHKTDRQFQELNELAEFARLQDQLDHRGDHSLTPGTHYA
UniProt Q3UH93, residues 49-1925: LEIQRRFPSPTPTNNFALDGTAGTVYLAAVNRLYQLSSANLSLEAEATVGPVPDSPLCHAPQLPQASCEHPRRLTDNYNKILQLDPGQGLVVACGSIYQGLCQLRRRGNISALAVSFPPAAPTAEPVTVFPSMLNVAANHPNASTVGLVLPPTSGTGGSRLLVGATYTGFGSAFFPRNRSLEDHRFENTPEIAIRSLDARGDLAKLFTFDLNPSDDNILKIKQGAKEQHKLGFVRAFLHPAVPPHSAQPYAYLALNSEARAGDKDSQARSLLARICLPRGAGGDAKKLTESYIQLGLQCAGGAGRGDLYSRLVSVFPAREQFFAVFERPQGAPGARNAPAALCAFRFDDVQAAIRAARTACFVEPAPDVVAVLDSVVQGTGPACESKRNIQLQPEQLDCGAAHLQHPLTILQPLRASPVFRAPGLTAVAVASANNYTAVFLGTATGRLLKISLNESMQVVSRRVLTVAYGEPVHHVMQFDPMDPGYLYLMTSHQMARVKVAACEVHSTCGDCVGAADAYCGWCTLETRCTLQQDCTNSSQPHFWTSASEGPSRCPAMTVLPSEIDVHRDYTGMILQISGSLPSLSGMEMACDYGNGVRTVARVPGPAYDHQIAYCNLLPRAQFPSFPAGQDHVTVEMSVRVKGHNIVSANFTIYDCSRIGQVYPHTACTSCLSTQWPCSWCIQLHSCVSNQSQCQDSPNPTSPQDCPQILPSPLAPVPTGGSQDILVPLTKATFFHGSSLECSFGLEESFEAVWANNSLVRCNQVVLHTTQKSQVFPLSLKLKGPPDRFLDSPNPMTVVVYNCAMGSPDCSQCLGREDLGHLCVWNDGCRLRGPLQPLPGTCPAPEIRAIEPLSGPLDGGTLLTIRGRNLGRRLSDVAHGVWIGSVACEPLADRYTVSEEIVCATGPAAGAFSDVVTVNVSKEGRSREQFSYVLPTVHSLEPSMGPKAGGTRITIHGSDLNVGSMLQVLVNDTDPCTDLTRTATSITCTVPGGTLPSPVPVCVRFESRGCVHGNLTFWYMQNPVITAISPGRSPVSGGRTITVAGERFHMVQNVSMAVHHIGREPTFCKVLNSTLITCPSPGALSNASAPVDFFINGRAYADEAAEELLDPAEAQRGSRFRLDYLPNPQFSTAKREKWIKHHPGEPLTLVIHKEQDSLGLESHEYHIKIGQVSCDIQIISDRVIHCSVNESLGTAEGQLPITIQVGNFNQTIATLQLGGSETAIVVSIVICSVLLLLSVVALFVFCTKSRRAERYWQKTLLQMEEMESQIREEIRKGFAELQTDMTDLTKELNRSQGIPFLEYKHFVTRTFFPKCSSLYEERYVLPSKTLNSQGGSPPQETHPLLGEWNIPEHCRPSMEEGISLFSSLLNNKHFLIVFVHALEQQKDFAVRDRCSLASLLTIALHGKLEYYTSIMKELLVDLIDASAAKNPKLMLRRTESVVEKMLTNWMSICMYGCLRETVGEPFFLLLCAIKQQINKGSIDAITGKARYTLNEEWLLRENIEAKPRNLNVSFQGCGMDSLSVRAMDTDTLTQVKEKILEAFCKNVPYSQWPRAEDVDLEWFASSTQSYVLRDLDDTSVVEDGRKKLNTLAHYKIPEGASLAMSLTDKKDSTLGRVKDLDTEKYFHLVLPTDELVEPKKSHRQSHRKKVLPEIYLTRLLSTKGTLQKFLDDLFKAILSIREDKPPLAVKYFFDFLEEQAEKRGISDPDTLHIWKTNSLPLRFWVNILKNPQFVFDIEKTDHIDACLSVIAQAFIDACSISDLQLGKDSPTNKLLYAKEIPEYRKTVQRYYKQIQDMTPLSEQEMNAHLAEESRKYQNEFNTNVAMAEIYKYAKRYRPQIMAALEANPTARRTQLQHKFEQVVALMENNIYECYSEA

These are yes or no findings as the source states them, for the method shown. Binding seen in cells or lysates may run through a third protein. Some entries that bind do so weakly or less than the wild type.

The assay concerns the target ORAI1 (mouse (endogenous in primary EECs)) (UniProt Q8BWG9). The experiment in a line: co-IP; EEC lysates in IP lysis buffer (pH 7.4, 0.025 M Tris, 0.15 M NaCl, 0.001 M EDTA, 5% glycerol) incubated with anti-PLXND1, anti-ORAI1 or IgG overnight at 4°C; Western blot for PLXND1 and ORAI1. For orientation: A western blot detects proteins with antibodies after separation by electrophoresis.

Take “PLXND1 (from UniProt Q3UH93 49-1925) (receptor)”: the binding entry is “binds”.
